PubChem BioAssay AID686943 | Drosophila RNAi Screening Center – 2013
Aim: 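Knockdowns that increase or decrease active ERK after insulin receptor stimulation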 (primary screen). Cell system: Drosophila S2R+ haemocyte-like cells expressing YFP-tagged ERK (Rolled). Reagents: long dsRNA against Drosophila genes. Challenge: insulin stimulation versus unstimulated cells; dose and duration not given. Measurement: 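Per-plate z-scores of phospho-ERK immunostaining normalised to YFP-tagged ERK, measured with and without insulin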. Scale: replicate 1, z-score of dpERK with insulin and replicate 2, z-score of dpERK with insulin: higher = more active ERK per ERK-YFP after insulin; replicate 1, z-score of dpERK under basal conditions: higher = more basal active ERK per ERK-YFP.
In all, the deposit lists about 23,000 reagents; shown is an unselected part of those that have a named target and a result. 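Extra replicates exist only for a retested subset of genes; insulin dose and duration not given; both raised and lowered dpERK matter.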 Names joined by + are all predicted targets of the reagent. Further read-outs or replicates are left out here. No sequences are given here. Not given: the amount of reagent, the time to read-out.

predicted target,PubChem SID,"replicate 1, z-score of dpERK with insulin","replicate 2, z-score of dpERK with insulin","replicate 1, z-score of dpERK under basal conditions"
Vha14-2,SID104191937,0.79,-0.95,0.46
CG15127,SID104185594,-0.09,0.15,0.38
CG15127,SID104186341,0.33,0.61,-0.76
Ugt37C1,SID104187208,-0.14,-0.4,0.61
Vm32E,SID104183266,-0.28,0.04,0.85
Tsp42Ep,SID104186663,0.17,0.62,-1.13
Nup44A,SID104187040,1.3,1.79,-0.43
Damm,SID104187185,0.02,0.05,-0.37
bi,SID104198534,0.55,0.98,0.65
CG6569,SID104195859,0.47,-0.37,-0.33
CG33143,SID104183943,0.52,0.44,0.05
CG33143,SID104184246,-0.52,0.08,-0.72
CG17778,SID104198296,-1.47,0.9,0.17
CG8349,SID104182875,-0.48,0.42,0.37
CG30384,SID104185824,-0.48,-0.29,0.29
CG12133,SID104185900,1.23,0.14,0.41
Mccc1,SID104195209,-0.07,0.2,-0.49
Lmpt,SID104189242,0.88,0.28,0.92
Lmpt,SID104189656,-0.54,0.33,0.2
Lmpt,SID104189657,-0.04,-0.1,0.71
Lmpt,SID104189658,0.82,0.02,0
Lmpt,SID104190899,0.91,-0.5,0.02
Lmpt,SID104201408,-1.43,-1.61,-0.73
Lmpt,SID104202278,-0.17,-0.66,2.86
beat-Vb,SID104192732,-0.23,-0.01,1.68
beat-Vb,SID104194636,1.56,-0.66,0.36
beat-Vb,SID104194637,-1.92,-0.97,-2.88
Schip1,SID104182643,-0.29,0.28,0.7
CG4686,SID104195414,0.3,0,0.81
CG15177,SID104192349,-0.52,-0.07,1.18
Vav,SID104200176,0.15,0.33,-1.19
Tsf1,SID104200088,0.18,-0.47,0.29
Ptpa,SID104180568,-0.39,-0.11,0.48
maca,SID104195530,-0.93,-1.46,0.35
Mink,SID104194083,0.22,0.78,0.44
Su(P),SID104191083,-1.11,1.05,-0.74
CAH13,SID104185920,0.59,1.07,0.03
mof,SID104198587,0.79,0.3,0.1

Single entries from the list:
For “replicate 1, z-score of dpERK under basal conditions”, CG33143 [SID104184246] is entered as -0.72
Under “replicate 2, z-score of dpERK with insulin”, Lmpt [SID104189657] shows -0.1
Vm32E [SID104183266], replicate 1, z-score of dpERK with insulin → -0.28
Result of Lmpt [SID104189242] in “replicate 2, z-score of dpERK with insulin”: 0.28

Further results follow:
predicted target,PubChem SID,"replicate 1, z-score of dpERK with insulin","replicate 2, z-score of dpERK with insulin","replicate 1, z-score of dpERK under basal conditions"
CG10444,SID104185782,0.75,0.7,-0.32
CG3345,SID104180388,0.11,0.2,0.29
GEFmeso,SID104186540,0.77,0.31,-0.29
GEFmeso,SID104186732,-0.13,0.13,0.45
GEFmeso,SID104201208,-0.68,-2.16,0.93
CG8924,SID104199914,-1.82,-1.13,-0.08
GstD3,SID104195363,0.3,-0.46,0.33
mute,SID104186354,-2.27,-0.82,-0.69
mute,SID104202288,-1.18,-1.44,-2.51
CG6739,SID104182779,0.56,0.92,-1.16
Phae2,SID104182347,0.28,0.29,0.13
CG31013,SID104196334,0.79,1.28,-0.8
Toll-4,SID104183250,0.28,0.39,0.92
CG6928,SID104190541,1.56,1.3,0.48
Cht9,SID104183871,0.49,0.62,0.71
CG5070,SID104199724,0.44,-0.18,-0.31
Burs,SID104194387,0.31,0.03,0.41
CG5882,SID104195699,1.08,0.49,0.72
deltaCOP,SID104198552,2.26,1.12,0.13
CG3740,SID104198300,-0.92,0.28,-0.69
mgl,SID104197592,1.58,0.28,-0.11
mgl,SID104197615,0.21,0.33,0.19
mgl,SID104197651,0.35,0.67,0.31
mgl,SID104197796,-1.01,0.51,-0.41
CG2685,SID104198255,-0.19,-1.67,-2.82
CG31735,SID104181310,-0.5,0.78,-1.09
Ir52d,SID104186056,0.14,0.17,-0.44
Gart,SID104183273,0.06,0,0.04
CG7387,SID104190625,0.52,-0.63,0.62
CG14435,SID104197720,-0.94,-0.22,-0.34
CG33998,SID104185539,-0.07,-0.14,0.24
fand,SID104186759,0.7,0.54,0
Nup35,SID104199791,-1.2,-0.57,-0.84
Rab9D + Rab9Fa + Rab9E,SID104199645,-0.54,-0.5,
CG4835,SID104190244,-2.39,-0.03,-0.07
